Assay results as given in patent US20190112603A1.
No constants are given. Whether binding was seen depends on the method and setting. Binding seen in cells or lysates may run through a third protein. Some results given as binding are weak or reduced against the parent protein; the word gives no strength.

The chains behind the UniProt entries cited, without tags or fusion partners. Where a name states a change or a piece, a line headed by the entry shows the natural chain unless it says otherwise. A line that says so, or that is headed by a name, gives the form on record, which may keep a tag or linker.
UniProt P40337: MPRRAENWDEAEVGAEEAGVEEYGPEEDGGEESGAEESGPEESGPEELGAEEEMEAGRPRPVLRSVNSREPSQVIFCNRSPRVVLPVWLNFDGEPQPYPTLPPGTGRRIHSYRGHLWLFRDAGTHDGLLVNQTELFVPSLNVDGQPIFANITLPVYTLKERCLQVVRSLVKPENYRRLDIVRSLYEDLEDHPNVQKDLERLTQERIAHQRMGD
HA-pVHL-RRR mutant (P40337, form named): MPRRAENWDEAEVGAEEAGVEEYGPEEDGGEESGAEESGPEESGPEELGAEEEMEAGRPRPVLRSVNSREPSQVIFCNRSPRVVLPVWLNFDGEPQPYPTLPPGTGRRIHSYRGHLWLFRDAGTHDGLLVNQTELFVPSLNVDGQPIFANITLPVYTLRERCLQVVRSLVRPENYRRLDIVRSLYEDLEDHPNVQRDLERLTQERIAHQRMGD
UniProt O00762: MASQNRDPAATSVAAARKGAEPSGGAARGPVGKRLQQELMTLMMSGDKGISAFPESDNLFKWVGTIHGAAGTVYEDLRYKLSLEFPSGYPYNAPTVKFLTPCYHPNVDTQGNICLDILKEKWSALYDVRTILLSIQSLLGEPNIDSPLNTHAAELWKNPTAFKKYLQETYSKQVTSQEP

Assays:
[1] = molecular target: HA-pVHL-WT (UniProt P40337); assay: summary of the co-immunoprecipitation results
[2] = molecular target: HA-pVHL-WT (UniProt P40337); assay: co-immunoprecipitation / co-transfection in HEK cells
[3] = molecular target: HA-pVHL-RRR mutant (UniProt P40337); assay: summary of the co-immunoprecipitation results with ubiquitination site mutants
[4] = molecular target: HA-pVHL-RRR mutant (UniProt P40337); assay: co-immunoprecipitation (HA-tag antibody) from co-transfected HEK cells, Western blot for UBE2C
[5] = molecular target: HA-pVHL-WT (UniProt P40337); assay: as above

binding [1]: binds
binding [2]: binds
binding [3]: binds
binding [4]: binds
binding [5]: binds
Substance: UBE2C (ubiquitin E2 ligase-C), overexpressed from myc-UBE2C plasmid in HEK cells (from UniProt O00762 1-179) (enzyme)
